Results: the supplement of paper PMC3334620
In all, about 33,000 sequences were measured (“E-score (-0.5 to 0.5)”: median about -8e-05, highest 2% from about 0.23 on). This is one part of the list.

Target: T1, Nrg2 (UniProt P38082)
T1 sequence: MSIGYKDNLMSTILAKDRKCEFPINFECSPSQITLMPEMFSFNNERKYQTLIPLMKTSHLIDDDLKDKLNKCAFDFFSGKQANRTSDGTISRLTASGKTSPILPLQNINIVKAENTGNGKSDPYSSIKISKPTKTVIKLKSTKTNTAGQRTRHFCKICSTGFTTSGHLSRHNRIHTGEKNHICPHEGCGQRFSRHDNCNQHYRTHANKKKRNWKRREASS
Assay: PBM E-score (8-mer binding enrichment) (E-score (-0.5 to 0.5)); higher = stronger / more preferred TF binding
Conditions: protein concentration: 100 nM; construct: GST-full length
Outline: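 For each ungapped eight-base word taken together with its reverse complement, the Universal PBM Analysis Suite assigned an E-score. Binding data came from GST-tagged yeast transcription factors, applied at about 100-200 nM, on universal all-10-mer Agilent arrays made double-stranded by primer extension. Fluorescent anti-GST marked bound protein, and scans were normalised with masliner.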

Compared with GGTTATTA, AGCACCCG is lower in “PBM E-score” value: 0.132 for the first, -0.0712 for the second.

Going from GCGGCTCC to CGCTTAGC, the “PBM E-score” value rises from -0.275 to -0.155.

First: ACGAATAT
Second: CCGTGGCA
The “PBM E-score” value of the first is higher: 0.159 for the first, -0.1 for the second.

Going from AGGTAAAC to AGCTCTAT, the “PBM E-score” value falls from 0.08 to -0.073.

Going from GAATCCAC to CATATCCG, the “PBM E-score” value rises from -0.0338 to 0.0953.

Going from CGTGCAAG to CAACGTGC, the “PBM E-score” value falls from 0.0549 to -0.0969.

First: AGCACCAT
Second: CTCCGTCC
The “PBM E-score” value of the first is higher: -0.134 for the first, -0.245 for the second.

Compared with ATATAGCG, GAGCGGCA is lower in “PBM E-score” value: -0.0724 for the first, -0.0956 for the second.

Compared with CAAGCCCC, ACTAGCTG is higher in “PBM E-score” value: -0.0421 for the first, 0.0379 for the second.

Compared with AACCCAAA, ATATAAAT is higher in “PBM E-score” value: 0.00356 for the first, 0.252 for the second.

Compared with CAGTGACA, AGTTAGCG is higher in “PBM E-score” value: -0.0545 for the first, 0.162 for the second.

First: CCCGCGAC
Second: CACTTAGA
The “PBM E-score” value of the first is lower: -0.14 for the first, 0.0291 for the second.

First: CGTTACAA
Second: GTAACAGA
The “PBM E-score” value of the first is lower: 0.0719 for the first, 0.154 for the second.

First: GGAACGCA
Second: ATAACGAG
The “PBM E-score” value of the first is higher: 0.0954 for the first, 0.0539 for the second.

First: GGACTCAA
Second: AGGCCCGA
The “PBM E-score” value of the first is higher: 0.139 for the first, -0.193 for the second.

Going from ATTTATCA to TGATTGAA, the “PBM E-score” value falls from 0.225 to 0.147.

First: CTCGTAAA
Second: CATGTTTC
The “PBM E-score” value of the first is lower: -0.0593 for the first, 0.0878 for the second.

Compared with ACGAAAGA, CTCACTTA is lower in “PBM E-score” value: 0.0363 for the first, -0.0533 for the second.

First: ATGACGCG
Second: CACGTGGA
The “PBM E-score” value of the first is higher: 0.187 for the first, 0.0556 for the second.

Going from AACTGTCC to CGCCCTAG, the “PBM E-score” value rises from -0.0683 to 0.084.

Compared with TCGCTTAA, AAAGTGTA is lower in “PBM E-score” value: 0.0825 for the first, 0.0766 for the second.

Going from TTGAACAA to AGACCGTA, the “PBM E-score” value falls from -0.0525 to -0.242.

Going from CAAGGATC to CCCGGCAG, the “PBM E-score” value falls from 0.0487 to -0.0782.

First: GACCTCGA
Second: ATCCGTGA
The “PBM E-score” value of the first is higher: 0.126 for the first, -0.0049 for the second.

Going from ATCTAAGG to ACCTAACG, the “PBM E-score” value falls from 0.128 to -0.0736.

First: ATGCGTGG
Second: ACTAGATC
The “PBM E-score” value of the first is lower: -0.189 for the first, 0.0954 for the second.

First: GAGCCAGC
Second: GTGTTCAA
The “PBM E-score” value of the first is lower: -0.198 for the first, -0.0711 for the second.

First: CGAATAAC
Second: ACCGAGGT
The “PBM E-score” value of the first is higher: 0.111 for the first, -0.182 for the second.

Going from CCCCCGAC to CCTCACCG, the “PBM E-score” value rises from -0.341 to -0.173.

Compared with CGAAGTTA, CTCTCTTA is lower in “PBM E-score” value: 0.0669 for the first, -0.0805 for the second.

Compared with AAAGCGGC, AGTGCTCA is lower in “PBM E-score” value: -0.0596 for the first, -0.18 for the second.

First: AGACGTGG
Second: ACTTTAAA
The “PBM E-score” value of the first is lower: -0.0559 for the first, 0.0738 for the second.

Going from CGATTATA to AGCGGTGG, the “PBM E-score” value falls from 0.138 to -0.061.

Going from CAAGCTCA to AAGTCCTC, the “PBM E-score” value rises from -0.067 to -0.0153.

Compared with AATCCTGT, GAATTCGA is lower in “PBM E-score” value: 0.0715 for the first, 0.0262 for the second.

Going from CTTATGAC to GCTGAGAA, the “PBM E-score” value rises from 0.0239 to 0.0902.

Going from AGCATGTA to CGTTATTC, the “PBM E-score” value falls from -0.024 to -0.0979.

Going from CCATGCAC to GGGGACCA, the “PBM E-score” value rises from -0.0815 to 0.0565.

Compared with AGTGTTCC, CACCGAGC is higher in “PBM E-score” value: -0.03 for the first, -0.0218 for the second.

First: GGTATACC
Second: ACTTTTCC
The “PBM E-score” value of the first is lower: 0.0403 for the first, 0.0561 for the second.

Going from TGTTGCAA to ATAGAGAG, the “PBM E-score” value falls from 0.268 to -0.191.

Going from TATGAGCA to CCCTTTAC, the “PBM E-score” value rises from -0.127 to 0.102.

Going from AAAAAGTA to AATCTGCG, the “PBM E-score” value rises from 0.0499 to 0.166.

Compared with AACAGTAA, ACTAGAGT is lower in “PBM E-score” value: 0.0109 for the first, -0.204 for the second.

First: ACAGCTCT
Second: CTCTAGAG
The “PBM E-score” value of the first is lower: -0.254 for the first, 0.0354 for the second.

Going from ACTGTTAA to AATGGATA, the “PBM E-score” value falls from 0.0564 to 0.00185.

First: GATGACAC
Second: CAACGATG
The “PBM E-score” value of the first is higher: 0.0199 for the first, -0.049 for the second.

Compared with AACTTTCG, ACGCCCGC is lower in “PBM E-score” value: 0.0282 for the first, -0.0617 for the second.

First: GTTCAGCA
Second: GTGGGCCA
The “PBM E-score” value of the first is higher: -0.00891 for the first, -0.0756 for the second.

Compared with CATCGTCA, AGGAAAAG is higher in “PBM E-score” value: 0.0132 for the first, 0.13 for the second.

Compared with GTCTGTCA, CCCTCTGA is lower in “PBM E-score” value: 0.153 for the first, -0.00534 for the second.

Compared with ATCGAGGC, AAAGGAGT is higher in “PBM E-score” value: -0.0417 for the first, -0.0141 for the second.

Going from ACCTGGTG to GATGTACA, the “PBM E-score” value rises from -0.231 to 0.0667.

Going from GACTGAAC to CGTCAGGA, the “PBM E-score” value rises from -0.232 to -0.112.

First: GGTCCAAC
Second: AATCGCGG
The “PBM E-score” value of the first is lower: 0.0117 for the first, 0.162 for the second.
